The list shows only some results of the screen, not a fair sample: it is rich in T/C values a quarter to a half above the control, in often repeated tests (any T/C) and in doses without a T/C. Other doses and runs of a compound stand elsewhere. T/C is the treated group as % of the vehicle group. Some doses have a count of surviving animals in place of a T/C: the source holds a T/C of zero for them, seemingly a mark for toxic or unscored doses. Some survivor counts are full or nearly so, which does not show that the dose was tolerated: survival well below the control is almost never listed, so the zero probably covers shortened survival too. Counts of survivors are from the toxicity check (mostly the fifth day) where no day follows; animals may have died later. Schedules are NCI's codes, read here as Q, the interval in days (D) or hours (H), X, the number of doses. Some entries were tested several times; the values are given in rising order. For survival time, this PubChem deposit counts one and a half times the control or more as active, and values a quarter to a half above the control carry no call in these data; other NCI protocols may use other cut-offs.
System: CD2F1 mice, L1210 leukemia ip, survival T/C
Assay: NCI In Vivo Anticancer Drug Screen. Data for tumor model L1210 Leukemia (intraperitoneal) in CD2F1 (CDF1) mice
Conditions: higher T/C = longer survival
Summary of the method: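 Read-out first: treated-group measurement over vehicle-control measurement, expressed as a ratio. Animals bore a transplanted tumor line and were dosed with compound or vehicle.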

[1] = T/C endpoint: mean survival time, dose: 50.0 mg/kg/injection, schedule: Q01DX009 (ip), vehicle: saline with Tween-80
[2] = T/C endpoint: mean survival time, dose: 200.0 mg/kg/injection, schedule: Q01DX009 (ip), vehicle: saline with Tween-80
[3] = T/C endpoint: mean survival time, dose: 200.0 mg/kg/injection, schedule: Q04DX003 (ip), vehicle: saline with Tween-80
[4] = T/C endpoint: mean survival time, dose: 400.0 mg/kg/injection, schedule: Q04DX002 (ip), vehicle: saline with Tween-80
[5] = T/C endpoint: mean survival time, dose: 6.25 mg/kg/injection, schedule: Q04DX003 (ip), vehicle: saline with Tween-80
[6] = T/C endpoint: mean survival time, dose: 300.0 mg/kg/injection, schedule: Q01DX001 (ip), vehicle: saline
[7] = T/C endpoint: mean survival time, dose: 200.0 mg/kg/injection, schedule: Q04DX002 (ip), vehicle: saline with Tween-80
[8] = T/C endpoint: mean survival time, dose: 400.0 mg/kg/injection, schedule: Q04DX003 (ip), vehicle: saline with Tween-80
[9] = T/C endpoint: mean survival time, dose: 100.0 mg/kg/injection, schedule: Q04DX003 (ip), vehicle: saline with Tween-80

With Cc1ccc(Cl)cc1NC(=S)NC(=O)COc1ccccc1 the T/C [1] was 89 and 94 % of control, the survivor count [1] was 1 of 3 and 5 of 6 and the survivor count (T/C endpoint: mean survival time, dose: 100.0 mg/kg/injection, schedule: Q01DX009 (ip), vehicle: saline with Tween-80) was 2 of 3 and 4 of 6. For the same molecule, the survivor count [2] was 2 of 6 and 2 of 3, the survivor count [3] was 6 of 6 and the survivor count [4] was 0 of 3.
For CC([NH-])CC(C)[NH-].O=C(O)C(=O)O.[Pt+2] (configuration not stated), the T/C [5] was 133 % of control and the T/C (T/C endpoint: mean survival time, dose: 6.25 mg/kg/injection, schedule: Q04DX003 (ip), vehicle: saline) was 130 % of control.
In the case of O=C(Nc1ccc(C2=NCCN2)cc1)Nc1cccc(NC(=O)Nc2ccc(C3=NCCN3)cc2)c1, the survivor count (T/C endpoint: mean survival time, dose: 15.0 mg/kg/injection, schedule: Q01DX008 (iv), vehicle: other) is reported as 0 of 7.
N#CC(C#N)=C(C#N)c1ccccc1 was tested, and the survivor count (T/C endpoint: mean survival time, dose: 100.0 mg/kg/injection, schedule: Q01DX001 (ip), vehicle: saline with Tween-80) was 3 of 6 and the survivor count (T/C endpoint: mean survival time, dose: 200.0 mg/kg/injection, schedule: Q01DX001 (ip), vehicle: saline with Tween-80) was 2 of 6.
With COc1cccc(CN2CCN(N)CC2)c1 the survivor count (T/C endpoint: mean survival time, dose: 400.0 mg/kg/injection, schedule: Q01DX009 (ip), vehicle: Klucel (hydroxypropylcellulose) (HPC)) was 0 of 6.
O=C1C=C(N2CCOCC2)c2ccccc2C1=O was tested, and the survivor count [6] was 0 of 6.
In the case of COc1cc(OC)c(NC(=O)Oc2ccc(C(C)(C)C)cc2Br)cc1Cl, the survivor count [1] is reported as 3 of 3.
In the case of COc1ccc(CC(=O)NCCc2ccc3c(c2)OCO3)cc1, the survivor count (T/C endpoint: mean survival time, dose: 400.0 mg/kg/injection, schedule: Q01DX001 (ip), vehicle: saline with Tween-80) is reported as 1 of 6.
With COC(=O)c1cc(NC(=O)Nc2cc([N+](=O)[O-])ccc2Cl)cc(C(=O)OC)c1 the survivor count (T/C endpoint: mean survival time, dose: 200.0 mg/kg/injection, schedule: Q01DX001 (ip), vehicle: saline) was 6 of 6.
In the case of Cc1ccc(S(=O)(=O)C[n+]2ccccc2N)cc1, the survivor count [7] is reported as 3 of 3 and the survivor count [4] is reported as 0 of 3.
With [Cl][Pt+2][Cl].[NH-]CC1CCC[N-]C1 (configuration not stated) the T/C [5] was 127 % of control, the T/C (T/C endpoint: mean survival time, dose: 12.5 mg/kg/injection, schedule: Q04DX003 (ip), vehicle: saline with Tween-80) was 133 % of control and the T/C (T/C endpoint: mean survival time, dose: 25.0 mg/kg/injection, schedule: Q04DX003 (ip), vehicle: saline with Tween-80) was 127 % of control.
O=C(CCl)c1cc(Cl)c(O)c(Cl)c1 was tested, and the survivor count (T/C endpoint: mean survival time, dose: 100.0 mg/kg/injection, schedule: Q01DX001 (ip), vehicle: carboxymethylcellulose (CMC)) was 2 of 4, the survivor count (T/C endpoint: mean survival time, dose: 200.0 mg/kg/injection, schedule: Q01DX001 (ip), vehicle: carboxymethylcellulose (CMC)) was 1 of 4 and the survivor count (T/C endpoint: mean survival time, dose: 400.0 mg/kg/injection, schedule: Q01DX001 (ip), vehicle: carboxymethylcellulose (CMC)) was 0 of 4.
With CC(=O)[O][Pb]([O]C(C)=O)([c]1ccccc1)[c]1ccccc1 the survivor count (T/C endpoint: mean survival time, dose: 25.0 mg/kg/injection, schedule: Q01DX009 (ip), vehicle: Klucel (hydroxypropylcellulose) (HPC)) was 6 of 6.
CC(C)N(CCCC#N)C(C)C was tested, and the survivor count (T/C endpoint: mean survival time, dose: 200.0 mg/kg/injection, schedule: Q01DX009 (ip), vehicle: saline) was 0 of 6 and the survivor count [8] was 0 of 6.
For COc1cc(OC)c(NC(=O)Oc2ccc(NC(C)=O)cc2)cc1Cl, the survivor count [2] was 3 of 3.
For CN1CCCN(C)C1c1cc([N+](=O)[O-])ccc1O, the survivor count [9] was 2 of 6, the survivor count [3] was 0 of 6 and the survivor count [8] was 1 of 6.
With CCCCCCCCCCCCCC[N+]1(C)CCC[N+](C)(CCCCCCCCCCCCCC)CC1 (configuration not stated) the survivor count (T/C endpoint: mean survival time, dose: 400.0 mg/kg/injection, schedule: Q04DX003 (ip), vehicle: other) was 3 of 6.
ClC1=NC(Cl)C(Cl)=N/C1=N\c1ncn[nH]1 (configuration not stated) was tested, and the survivor count [9] was 5 of 6, the survivor count (T/C endpoint: mean survival time, dose: 200.0 mg/kg/injection, schedule: Q04DX003 (ip), vehicle: saline sonified) was 2 of 6 and the survivor count (T/C endpoint: mean survival time, dose: 400.0 mg/kg/injection, schedule: Q04DX003 (ip), vehicle: saline sonified) was 1 of 6.
CN1CC=C(c2ccccc2)CC1 was tested, and the survivor count (T/C endpoint: mean survival time, dose: 75.0 mg/kg/injection, schedule: Q04DX003 (ip), vehicle: saline) was 4 of 6, the survivor count (T/C endpoint: mean survival time, dose: 150.0 mg/kg/injection, schedule: Q01DX001 (ip), vehicle: saline) was 0 of 6 and the survivor count [6] was 0 of 6.
In the case of Nc1ncnc2c1ccn2C1OC2COP(=O)(O)OC2C1O (configuration not stated), the survivor count (T/C endpoint: mean survival time, dose: 80.0 mg/kg/injection, schedule: Q01DX001 (ip), vehicle: saline) is reported as 2 of 6.
With CC(C(=O)O)C1(O)CCCCC1 (configuration not stated) the survivor count [9] was 0 of 6, the survivor count [3] was 0 of 6 and the survivor count [8] was 0 of 6.
C[CH2][Sn]1([CH2]C)[O]C2C(CO)OC(n3cnc4c(N)ncnc43)C2[O]1 (configuration not stated) was tested, and the survivor count (T/C endpoint: mean survival time, dose: 25.0 mg/kg/injection, schedule: Q01DX005 (ip), vehicle: other) was 0 of 6, the survivor count (T/C endpoint: mean survival time, dose: 50.0 mg/kg/injection, schedule: Q01DX005 (ip), vehicle: other) was 0 of 6 and the survivor count (T/C endpoint: mean survival time, dose: 100.0 mg/kg/injection, schedule: Q01DX005 (ip), vehicle: other) was 0 of 6. For the same molecule, the survivor count (T/C endpoint: mean survival time, dose: 200.0 mg/kg/injection, schedule: Q01DX005 (ip), vehicle: other) was 0 of 6.
CN1N=C(N)c2cn(C3OC(CO)C4OC(C)(C)OC43)c3ncnc1c23 (configuration not stated) was tested, and the survivor count (T/C endpoint: mean survival time, dose: 200.0 mg/kg/injection, schedule: Q01DX005 (ip), vehicle: water) was 0 of 3.
For O=NN(CCCl)C(=S)NCCCl, the T/C (T/C endpoint: mean survival time, dose: 7.5 mg/kg/injection, schedule: Q01DX001 (ip), vehicle: distilled water + Tween-80) was 143 and 144 % of control, the T/C (T/C endpoint: mean survival time, dose: 30.0 mg/kg/injection, schedule: Q01DX001 (ip), vehicle: distilled water + Tween-80) was 143 % of control and the survivor count (T/C endpoint: mean survival time, dose: 60.0 mg/kg/injection, schedule: Q01DX001 (ip), vehicle: distilled water + Tween-80) was 3 of 6. The survivor count (T/C endpoint: mean survival time, dose: 120.0 mg/kg/injection, schedule: Q01DX001 (ip), vehicle: distilled water + Tween-80) was 1 of 6.
For CN=NN(C)C(=O)NC, the T/C (T/C endpoint: median survival time, dose: 21.6 mg/kg/injection, schedule: Q01DX005 (ip), vehicle: saline) was 132 % of control, the T/C (T/C endpoint: median survival time, dose: 25.0 mg/kg/injection, schedule: Q01DX005 (ip), vehicle: saline) was 125 % of control and the T/C (T/C endpoint: median survival time, dose: 36.0 mg/kg/injection, schedule: Q01DX005 (ip), vehicle: saline) was 146 % of control. For the same molecule, the T/C (T/C endpoint: median survival time, dose: 50.0 mg/kg/injection, schedule: Q01DX005 (ip), vehicle: saline) was 139 % of control, the T/C (T/C endpoint: median survival time, dose: 100.0 mg/kg/injection, schedule: Q01DX005 (ip), vehicle: saline) was 137 % of control and the survivor count (T/C endpoint: median survival time, dose: 166.67 mg/kg/injection, schedule: Q01DX005 (ip), vehicle: saline) was 6 of 6.
In the case of O=C1N(Cl)C2C(N1Cl)N(Cl)C(=O)N2Cl (configuration not stated), the survivor count [9] is reported as 1 of 6, the survivor count [3] is reported as 0 of 6 and the survivor count [8] is reported as 0 of 6.
CC(=O)Nc1cccc(N=Cc2ccc(N(CCOS(C)(=O)=O)CCOS(C)(=O)=O)cc2C)c1 was tested, and the T/C (T/C endpoint: mean survival time, dose: 12.0 mg/kg/injection, schedule: Q01DX009 (ip), vehicle: saline with Tween-80) was 138 % of control, the T/C (T/C endpoint: mean survival time, dose: 12.5 mg/kg/injection, schedule: Q01DX009 (ip), vehicle: saline with Tween-80) was 143 % of control and the T/C (T/C endpoint: mean survival time, dose: 18.0 mg/kg/injection, schedule: Q01DX009 (ip), vehicle: saline with Tween-80) was 147 % of control.
With N[N+]#COC1C(C(=O)NN)C1C(=O)NN (configuration not stated) the survivor count (T/C endpoint: median survival time, dose: 200.0 mg/kg/injection, schedule: Q04DX002 (ip), vehicle: saline with Tween-80) was 3 of 3.
With c1ccc2nc3c(cc2c1)CCC3 the survivor count (T/C endpoint: mean survival time, dose: 400.0 mg/kg/injection, schedule: Q04DX003 (ip), vehicle: saline + alcohol) was 1 of 3.
In the case of Cc1ccc(C2OC2C(=O)c2ccccc2)cc1 (configuration not stated), the survivor count [7] is reported as 3 of 3.
Cc1cc(C)nc(C)c1.[Cl-].[Cl-].[Cl-].[Cl-].[Pt+2] was tested, and the survivor count [3] was 0 of 4 and the survivor count [8] was 0 of 4.
In the case of N#CCCCN=[N+]=[N-], the survivor count [6] is reported as 0 of 6.
Cc1nc(N)c2ncn(C3OC(CO)C(O)C3O)c2n1 (configuration not stated) was tested, and the survivor count [7] was 1 of 3 and the survivor count [4] was 0 of 3.
For COc1cc2ccncc2cc1O, the survivor count (T/C endpoint: mean survival time, dose: 100.0 mg/kg/injection, schedule: Q01DX009 (ip), vehicle: water) was 2 of 6, the survivor count (T/C endpoint: mean survival time, dose: 200.0 mg/kg/injection, schedule: Q01DX009 (ip), vehicle: water) was 0 of 6 and the survivor count (T/C endpoint: mean survival time, dose: 400.0 mg/kg/injection, schedule: Q01DX009 (ip), vehicle: water) was 0 of 6.
In the case of COc1ccc2[nH]cc(CCN(C)C)c2c1, the survivor count [9] is reported as 6 of 6, the survivor count [3] is reported as 6 of 6 and the survivor count [8] is reported as 5 of 6.

Reference: PubChem BioAssay AID256 (DTP/NCI, 2004)
